# In patent US20240083921A1, “BORATE DERIVATIVE AND USES THEREOF” (Reistone Biopharma Company Limited, priority 2020, published 2024):
# At least one compound was matched to its structure with a doubt left.
# Tested on: imiquimod-induced psoriasis mouse model
# Test: Suppression of imiquimod-induced psoriasis in mice (topical ointment)
# Type: in vivo, Balb/c female mice
# From the text: Test Example 4 Experiment of Suppression of Imiquimod-Induced Psoriasis
# An appropriate amount of Compound 12-1 was formulated into an ointment with the following components: 0.1% of Compound 12-1, 9% of hexanediol, 78.8% of white petrolatum, 5% of paraffin, 7% of glyceryl mono- and distearate, and 0.1% of […], which were mechanically stirred until an ointment was formed.
# 1) Model Establishment and Drug Administration
# 7-Week-old Balb/c female mice were used and the hair on their back in an area of 2 cm×3 cm was shaved the day before the experiment. On Days 1-7 of the experiment, the test compounds were applied on the skin for 6 hours, and then imiquimod (IMQ) ointment (Aldara (5%)) was continuously applied to the back skin of mice for 7 days, so as to establish a mouse model of psoriasis, while the control group was given the same dose of petrolatum ointment. On Days 3, 5 and 7, the severity of skin inflammation was assessed, including measurement of skin thickness, crusting and erythema, scored on a 5-point scale (0-4) respectively. The total score was used to assess the severity of skin inflammation. On Day 7 of the experiment, the spleen was collected and weighed, and the percentage of spleen to body weight was calculated to assess the immunosuppressive effect of the drug.
# Normal control group, model control group, low, medium and high dose groups of Compound 12-1 (0.01%, 0.03% and 0.1%), 0.03% Compound 1-1 group, and 0.03% reference Compound A group were set up in this experiment.
# The total score of the degree of skin inflammation was the clinical score, the indicators of which were relatively subjective, and higher score indicated more serious disease. The degree of increase in skin thickness was an objective assessment indicator, and more increase in thickness indicated more serious disease. The ratio of spleen weight to body weight was an objective assessment indicator, and smaller ratio of spleen weight to body weight indicated stronger immunosuppressive effect of the drug.
smiles,measurement,setting,value
COc1ccc(-c2cncc([C@@H]3COB(O)C3)n2)c2c1OC(C)(C)CC2 [Compound 12-1],inhibitory effect on the increase of skin thickness compared with Compound A,"0.03%, same dose",significantly higher inhibitory effect
same,single item scores (statement),"Compound 1-1 0.03%, each dose group of Compound 12-1",mainly improve scab and reduce skin thickness
same,clinical score at the endpoint (statement),"Compound A 0.03%, Compound 1-1 0.03%, each dose of Compound 12-1, versus model",significantly reduce the clinical score
same,effect on the ratio of spleen weight to body weight (statement),"Compound A 0.03%, Compound 1-1 0.03%, three dose groups of Compound 12-1, versus model",significantly reduce the ratio of spleen weight to body weight
same,improving psoriasis symptoms compared with reference Compound A,IMQ mice,significantly better than the reference Compound A
same,increase of skin thickness (statement),"low and high dose groups of Compound 12-1 (0.01%, 0.1%), Compound A 0.03%",significantly inhibit the increase of skin thickness
same,effect on the ratio of spleen weight to body weight compared with Compound A,same dose (0.03%),significantly different from that of Compound A
